Source: PMC6411159, “Development of a high-throughput fluorescent no-wash sodium influx assay” (PLoS ONE, 2019)

How the values were obtained:
[1] = quenching of background fluorescence of the sodium indicator ANG-2 in NaV1.7-HEK cells (FLIPR); details: quencher 1 mM, NaV1.7-HEK cells loaded with ANG-2, 60–100 s after addition; no quencher 2557 ± 34, wash 1539 ± 44
[2] = quenching of background fluorescence of the calcium indicator fluo-4 in SH-SY5Y cells (FLIPR); parameters: species or system human; details: quencher 1 mM, SH-SY5Y cells loaded with fluo-4; no quencher 4243 ± 100

Row | SMILES | background fluorescence after addition of food dye [1] | background fluorescence after addition of quencher [2]
1 | CC(=O)Nc1ccc(S(=O)(=O)[O-])c2cc(S(=O)(=O)[O-])c(N=Nc3ccc(N=Nc4ccc(S(=O)(=O)[O-])cc4)c4ccc(S(=O)(=O)[O-])cc34)c(O)c12.[Na+].[Na+].[Na+].[Na+] [Brilliant Black BN] | 1459 ± 34 RFU | 885 ± 12 RFU
2 | COc1cc(S(=O)(=O)[O-])c(C)cc1N=Nc1c(O)ccc2cc(S(=O)(=O)[O-])ccc12.[Na+].[Na+] [Allura Red, Allura Red AC] | 1505 ± 39 RFU | 980 ± 126 RFU
3 | O=S(=O)([O-])c1cc(S(=O)(=O)[O-])c2c(N=Nc3ccc(S(=O)(=O)[O-])c4ccccc34)c(O)ccc2c1.[Na+].[Na+].[Na+] [Ponceau 4R] | 1575 ± 26 RFU | 848 ± 11 RFU
4 | O=S(=O)([O-])c1ccc2c(N=Nc3ccc(S(=O)(=O)[O-])c4ccccc34)c(O)c(S(=O)(=O)[O-])cc2c1.[Na+].[Na+].[Na+] [Amaranth] | 1451 ± 17 RFU | 1166 ± 40 RFU
5 | Cc1c(C(=O)O)c(O)cc2c1C(=O)c1c(O)c(C3O[C@H](CO)[C@@H](O)[C@H](O)[C@H]3O)c(O)c(O)c1C2=O (stereo in doubt) [Carmine] | 1526 ± 71 RFU | 
